US8013123B2 (B.R.A.H.M.S. GmbH, priority 2004, dated 2011)

System: enkephalin-fp
Experiment: Immunoassay for the quantitative determination of enkephalin-fp (P571-coated tubes, tagged anti-PTE18)
Parameters: species or system human
Conditions: healthy controls

B1: proenkephalin: precursor of the enkephalins, Sequence ID 1, including its fragments (protein)
chain: ECSQDCATCSYRLVRFADINFLACVMECEGKLPSLKIWETCKELLQLSKPELPQDGTSTLRENSKPEESHLLAKRYGGFMKRYGGFMKKMDELYPMEPEEEANGSEILAKRYGGFMKKNAEEDDSLANSSDLLKELLETGDNRERSHHQDGSDNEEEVSKRYGGFMRGLKRSPQLEDEAKELQKRYGGFMRRVGRPEWWMDYQKRYGGFLKRFAEALPSDEEGESYSKEVPEMEKRYGGFMRF
liquor to plasma ratio (CSF median over plasma median): 130 fold | immune reactivity limit for 95% of healthy control individuals (plasma): below 109 pg/ml | median immune reactivity in plasma of healthy control individuals (plasma): 74 pg/mL
